Results on two sequences are retold here after US20220175935.

By UniProt entry, the sequences of proteins in these tests, tags left out. Residues count along the entry.
UniProt P20152, 2-466: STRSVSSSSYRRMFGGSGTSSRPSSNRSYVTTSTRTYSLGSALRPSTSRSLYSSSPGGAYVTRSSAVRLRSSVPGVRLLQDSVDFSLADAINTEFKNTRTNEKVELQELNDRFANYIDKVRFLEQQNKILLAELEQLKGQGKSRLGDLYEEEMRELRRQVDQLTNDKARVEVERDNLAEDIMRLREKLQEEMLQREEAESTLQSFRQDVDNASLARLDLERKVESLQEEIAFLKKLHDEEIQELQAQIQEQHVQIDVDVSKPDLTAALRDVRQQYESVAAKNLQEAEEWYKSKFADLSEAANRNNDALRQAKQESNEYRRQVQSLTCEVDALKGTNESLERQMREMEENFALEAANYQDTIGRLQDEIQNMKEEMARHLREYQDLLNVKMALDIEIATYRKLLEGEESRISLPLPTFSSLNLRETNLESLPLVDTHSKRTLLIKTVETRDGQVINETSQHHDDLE

For at least one entry, the source does not settle the construct or the ends of the probe. For some assays here: Where a protein sequence is shown, tags need not be part of it.

Data set [1] deals with T1, Annexin A4 (ANXA4) (UniProt P97429).
T1 sequence (looked up, limits assumed): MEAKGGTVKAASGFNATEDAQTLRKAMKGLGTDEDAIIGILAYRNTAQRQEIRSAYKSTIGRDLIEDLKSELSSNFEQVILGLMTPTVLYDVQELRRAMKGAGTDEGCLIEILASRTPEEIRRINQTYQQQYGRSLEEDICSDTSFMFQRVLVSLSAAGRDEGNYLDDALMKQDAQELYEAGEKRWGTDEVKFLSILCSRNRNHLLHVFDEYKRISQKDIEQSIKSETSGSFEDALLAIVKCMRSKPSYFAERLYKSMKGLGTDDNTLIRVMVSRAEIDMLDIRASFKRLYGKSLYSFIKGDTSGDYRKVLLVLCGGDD
The data set can be described thus: flow cytometry. To be noted: 2'-F (2'-fluoro-RNA, DuraScribe T7 transcription); irrelevant-protein beads as control; target found by aptamer pulldown/MS; purified recombinant protein; label: Cy3. A general note: Flow cytometry measures light scatter and fluorescence of single cells or particles in a stream.

For data set [2], the target named is Vimentin (VIM) (UniProt P20152). The data set can be described thus: flow cytometry. The settings on record: 2'-F (2'-fluoro-RNA, DuraScribe T7 transcription); irrelevant-protein beads as control; target found by aptamer pulldown/MS; purified recombinant protein; label: Cy3.

“GGAGGACGAUGCGGAUUACCAACUUGAACGCCGAGAGUGUGGUCACGUGUUCUGCAGACGACUCGCUGAGGAUCCGAGA [aptamer 3]”: in data set [1], the binding result was “binds”. Turning to “GGAGGACGAUGCGGGGAAGCAACACUUAGUCGCGAUUGAUACGUGCGCAGUCAUCAGACGACUCGCUGAGGAUCCGAGA [aptamer 11]”, the binding result in data set [2] is on record as “binds”.
